According to US20190209659, “STABLE LIQUID FIBRINOGEN” (LABORATOIRE FRANCAIS DU FRACTIONNEMENT ET DES …, published 2019):

System: fibrinogen (plasma) (Homo sapiens)
Assay: SPR
Settings: 5' biotin-triethylene glycol (SPR), 5' amino-C6 spacer and 3' inverted dT (affinity support), purified native protein, single-stranded DNA

| Sequence | binding result (pH above 6.8: no binding, variant of SEQ ID NO 58 aptamer) | binding result (pH above 6.8: not bound, binding decreases as pH rises from 6.3, variant of SEQ ID NO 1 aptamer) |
| --- | --- | --- |
| CGCGTGTGGTTGGTAGGGCTAGGTGTATACGCAT [SEQ ID NO 67 (A5-2.9 base sequence)] | no binding |  |
| GGGTCAATGCCAGGTCTCGGACCTGGAATCCGCCACCCGCATTAGAACCAGGGTTGAC [SEQ ID NO 66 (A5-1.9 base sequence)] |  | no binding |

Negatives hold for the conditions tested.
